Source: the supplement of paper PMC11732987, “Enantioselective OTUD7B fragment discovery through chemoproteomics screening and high-throughput optimisation” (Communications Chemistry, 2025)
This is one part of the list. The data scatter; read single values as rough.

Sequences of proteins named here, by UniProt entry; tags and fusion partners are left off. A change or cut given only in a name is not applied to a line headed by its entry. Residues count along the entry.
UniProt P46199: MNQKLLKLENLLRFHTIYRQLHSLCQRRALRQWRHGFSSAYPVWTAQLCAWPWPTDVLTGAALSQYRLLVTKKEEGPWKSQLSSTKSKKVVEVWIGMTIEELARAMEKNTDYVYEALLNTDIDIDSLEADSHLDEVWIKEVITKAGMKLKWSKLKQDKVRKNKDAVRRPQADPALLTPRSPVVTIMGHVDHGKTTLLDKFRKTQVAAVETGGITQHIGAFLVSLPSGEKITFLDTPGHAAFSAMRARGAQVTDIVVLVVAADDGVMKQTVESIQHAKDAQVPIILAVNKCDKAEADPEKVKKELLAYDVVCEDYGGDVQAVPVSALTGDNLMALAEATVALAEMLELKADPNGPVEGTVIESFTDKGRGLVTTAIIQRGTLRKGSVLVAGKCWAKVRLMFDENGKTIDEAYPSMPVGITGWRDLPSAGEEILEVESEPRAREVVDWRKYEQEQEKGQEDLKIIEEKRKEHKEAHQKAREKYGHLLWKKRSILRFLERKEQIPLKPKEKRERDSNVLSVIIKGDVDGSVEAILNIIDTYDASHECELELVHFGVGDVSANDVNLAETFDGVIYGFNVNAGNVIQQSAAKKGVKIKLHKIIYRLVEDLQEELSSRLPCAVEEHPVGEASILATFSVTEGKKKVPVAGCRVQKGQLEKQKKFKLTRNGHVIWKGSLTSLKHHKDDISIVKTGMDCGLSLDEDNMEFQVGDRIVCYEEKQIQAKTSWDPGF
UniProt Q7Z406, whole entry, looked up: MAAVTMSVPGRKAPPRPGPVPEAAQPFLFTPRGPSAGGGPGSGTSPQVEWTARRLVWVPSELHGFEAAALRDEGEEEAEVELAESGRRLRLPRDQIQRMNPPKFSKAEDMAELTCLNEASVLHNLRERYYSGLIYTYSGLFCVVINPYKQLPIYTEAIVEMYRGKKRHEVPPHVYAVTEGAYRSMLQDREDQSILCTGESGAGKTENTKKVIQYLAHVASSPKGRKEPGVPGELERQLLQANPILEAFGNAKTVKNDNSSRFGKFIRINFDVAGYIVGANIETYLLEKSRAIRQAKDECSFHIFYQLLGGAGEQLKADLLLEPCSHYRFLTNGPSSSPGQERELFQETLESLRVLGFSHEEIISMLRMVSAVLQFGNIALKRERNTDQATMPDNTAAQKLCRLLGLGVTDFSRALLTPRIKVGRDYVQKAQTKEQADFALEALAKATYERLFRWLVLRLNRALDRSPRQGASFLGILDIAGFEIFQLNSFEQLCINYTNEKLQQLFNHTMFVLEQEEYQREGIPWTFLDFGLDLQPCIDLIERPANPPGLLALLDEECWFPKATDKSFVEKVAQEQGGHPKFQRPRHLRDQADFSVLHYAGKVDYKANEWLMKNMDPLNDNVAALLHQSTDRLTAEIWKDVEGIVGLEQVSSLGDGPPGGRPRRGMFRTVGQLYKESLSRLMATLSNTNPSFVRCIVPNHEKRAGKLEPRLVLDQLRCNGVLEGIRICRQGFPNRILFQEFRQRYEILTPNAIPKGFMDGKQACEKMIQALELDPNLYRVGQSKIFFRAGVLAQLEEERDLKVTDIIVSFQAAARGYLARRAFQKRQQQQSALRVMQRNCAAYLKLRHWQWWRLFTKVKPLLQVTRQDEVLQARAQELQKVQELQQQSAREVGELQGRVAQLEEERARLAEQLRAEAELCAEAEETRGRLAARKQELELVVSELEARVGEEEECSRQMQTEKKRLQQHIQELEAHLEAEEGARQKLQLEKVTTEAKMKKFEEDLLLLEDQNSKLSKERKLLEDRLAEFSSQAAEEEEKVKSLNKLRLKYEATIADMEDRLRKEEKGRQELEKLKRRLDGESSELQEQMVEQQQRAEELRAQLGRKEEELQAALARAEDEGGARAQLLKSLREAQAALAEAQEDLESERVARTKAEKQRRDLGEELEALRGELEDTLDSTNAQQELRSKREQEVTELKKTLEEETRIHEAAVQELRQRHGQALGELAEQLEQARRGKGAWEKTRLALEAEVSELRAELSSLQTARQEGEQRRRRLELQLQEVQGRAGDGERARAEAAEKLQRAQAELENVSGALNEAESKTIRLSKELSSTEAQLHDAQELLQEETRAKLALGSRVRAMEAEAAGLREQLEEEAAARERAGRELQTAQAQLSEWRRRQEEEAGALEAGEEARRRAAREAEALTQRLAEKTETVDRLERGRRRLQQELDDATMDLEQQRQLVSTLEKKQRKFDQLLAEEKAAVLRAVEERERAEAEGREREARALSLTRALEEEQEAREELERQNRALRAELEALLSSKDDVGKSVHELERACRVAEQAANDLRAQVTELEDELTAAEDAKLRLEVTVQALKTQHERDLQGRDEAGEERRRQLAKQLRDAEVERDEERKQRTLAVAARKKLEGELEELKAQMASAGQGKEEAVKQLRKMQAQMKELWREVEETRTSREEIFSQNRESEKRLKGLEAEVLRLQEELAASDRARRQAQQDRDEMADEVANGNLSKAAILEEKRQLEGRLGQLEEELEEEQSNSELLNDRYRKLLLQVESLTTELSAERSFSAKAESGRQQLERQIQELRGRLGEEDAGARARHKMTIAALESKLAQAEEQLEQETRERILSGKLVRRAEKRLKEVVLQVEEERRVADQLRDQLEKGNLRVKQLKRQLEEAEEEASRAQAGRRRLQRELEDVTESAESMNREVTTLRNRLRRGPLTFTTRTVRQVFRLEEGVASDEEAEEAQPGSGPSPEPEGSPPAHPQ
UniProt Q9H4K7, 169-190: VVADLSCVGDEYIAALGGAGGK
UniProt Q765P7: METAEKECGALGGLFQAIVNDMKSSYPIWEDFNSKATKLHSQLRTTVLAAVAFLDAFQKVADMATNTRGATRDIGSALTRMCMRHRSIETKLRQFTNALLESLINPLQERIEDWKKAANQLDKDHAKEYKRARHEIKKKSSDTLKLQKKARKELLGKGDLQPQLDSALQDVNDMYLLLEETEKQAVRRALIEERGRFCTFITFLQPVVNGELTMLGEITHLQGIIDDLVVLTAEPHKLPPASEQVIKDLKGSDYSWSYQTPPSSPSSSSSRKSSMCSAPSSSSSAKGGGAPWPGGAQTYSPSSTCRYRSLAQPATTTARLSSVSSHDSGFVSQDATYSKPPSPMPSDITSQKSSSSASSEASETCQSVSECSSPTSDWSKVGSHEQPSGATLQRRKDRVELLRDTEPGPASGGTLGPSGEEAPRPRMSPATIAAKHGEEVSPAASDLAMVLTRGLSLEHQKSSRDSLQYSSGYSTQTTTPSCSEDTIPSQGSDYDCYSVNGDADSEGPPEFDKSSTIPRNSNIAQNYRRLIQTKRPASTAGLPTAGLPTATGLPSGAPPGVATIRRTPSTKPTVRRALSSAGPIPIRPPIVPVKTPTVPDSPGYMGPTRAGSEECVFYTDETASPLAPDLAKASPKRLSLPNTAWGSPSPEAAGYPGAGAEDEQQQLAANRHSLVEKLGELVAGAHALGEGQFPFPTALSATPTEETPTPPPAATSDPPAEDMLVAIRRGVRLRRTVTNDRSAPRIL
UniProt O43347, 1-21: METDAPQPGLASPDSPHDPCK
UniProt P10244, 5-26: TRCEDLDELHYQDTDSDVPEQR
UniProt Q9NXD2: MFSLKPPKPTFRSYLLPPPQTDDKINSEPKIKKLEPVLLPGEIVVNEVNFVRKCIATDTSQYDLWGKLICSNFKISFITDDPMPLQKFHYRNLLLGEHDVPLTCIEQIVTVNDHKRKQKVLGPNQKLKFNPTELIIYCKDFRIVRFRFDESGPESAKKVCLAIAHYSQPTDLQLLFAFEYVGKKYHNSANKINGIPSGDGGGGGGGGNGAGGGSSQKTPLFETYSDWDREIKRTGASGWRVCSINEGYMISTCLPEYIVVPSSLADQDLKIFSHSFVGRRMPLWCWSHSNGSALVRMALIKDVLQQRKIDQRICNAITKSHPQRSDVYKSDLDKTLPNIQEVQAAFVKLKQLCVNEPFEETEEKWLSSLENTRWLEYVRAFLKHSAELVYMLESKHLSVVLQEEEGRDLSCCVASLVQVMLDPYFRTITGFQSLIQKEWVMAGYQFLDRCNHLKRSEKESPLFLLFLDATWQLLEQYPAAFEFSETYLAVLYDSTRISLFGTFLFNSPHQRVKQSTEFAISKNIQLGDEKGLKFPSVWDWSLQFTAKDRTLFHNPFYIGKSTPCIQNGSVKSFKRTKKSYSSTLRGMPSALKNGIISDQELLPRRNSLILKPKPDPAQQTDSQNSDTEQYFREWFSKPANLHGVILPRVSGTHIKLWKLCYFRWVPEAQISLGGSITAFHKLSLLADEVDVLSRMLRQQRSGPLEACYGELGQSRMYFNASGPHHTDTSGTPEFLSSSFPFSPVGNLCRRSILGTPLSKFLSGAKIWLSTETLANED
UniProt Q7Z6M4: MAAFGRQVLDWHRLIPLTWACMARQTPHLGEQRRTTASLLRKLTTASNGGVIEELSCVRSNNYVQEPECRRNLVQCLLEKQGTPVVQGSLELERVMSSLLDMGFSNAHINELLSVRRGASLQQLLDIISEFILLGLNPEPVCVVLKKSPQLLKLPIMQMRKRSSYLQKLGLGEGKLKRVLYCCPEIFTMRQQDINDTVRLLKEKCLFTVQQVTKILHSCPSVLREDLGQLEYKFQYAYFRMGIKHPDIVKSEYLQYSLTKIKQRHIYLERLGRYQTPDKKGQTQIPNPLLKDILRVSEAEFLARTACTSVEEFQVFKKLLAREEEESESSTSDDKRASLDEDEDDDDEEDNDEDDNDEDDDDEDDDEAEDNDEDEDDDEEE
UniProt Q9Y4B5: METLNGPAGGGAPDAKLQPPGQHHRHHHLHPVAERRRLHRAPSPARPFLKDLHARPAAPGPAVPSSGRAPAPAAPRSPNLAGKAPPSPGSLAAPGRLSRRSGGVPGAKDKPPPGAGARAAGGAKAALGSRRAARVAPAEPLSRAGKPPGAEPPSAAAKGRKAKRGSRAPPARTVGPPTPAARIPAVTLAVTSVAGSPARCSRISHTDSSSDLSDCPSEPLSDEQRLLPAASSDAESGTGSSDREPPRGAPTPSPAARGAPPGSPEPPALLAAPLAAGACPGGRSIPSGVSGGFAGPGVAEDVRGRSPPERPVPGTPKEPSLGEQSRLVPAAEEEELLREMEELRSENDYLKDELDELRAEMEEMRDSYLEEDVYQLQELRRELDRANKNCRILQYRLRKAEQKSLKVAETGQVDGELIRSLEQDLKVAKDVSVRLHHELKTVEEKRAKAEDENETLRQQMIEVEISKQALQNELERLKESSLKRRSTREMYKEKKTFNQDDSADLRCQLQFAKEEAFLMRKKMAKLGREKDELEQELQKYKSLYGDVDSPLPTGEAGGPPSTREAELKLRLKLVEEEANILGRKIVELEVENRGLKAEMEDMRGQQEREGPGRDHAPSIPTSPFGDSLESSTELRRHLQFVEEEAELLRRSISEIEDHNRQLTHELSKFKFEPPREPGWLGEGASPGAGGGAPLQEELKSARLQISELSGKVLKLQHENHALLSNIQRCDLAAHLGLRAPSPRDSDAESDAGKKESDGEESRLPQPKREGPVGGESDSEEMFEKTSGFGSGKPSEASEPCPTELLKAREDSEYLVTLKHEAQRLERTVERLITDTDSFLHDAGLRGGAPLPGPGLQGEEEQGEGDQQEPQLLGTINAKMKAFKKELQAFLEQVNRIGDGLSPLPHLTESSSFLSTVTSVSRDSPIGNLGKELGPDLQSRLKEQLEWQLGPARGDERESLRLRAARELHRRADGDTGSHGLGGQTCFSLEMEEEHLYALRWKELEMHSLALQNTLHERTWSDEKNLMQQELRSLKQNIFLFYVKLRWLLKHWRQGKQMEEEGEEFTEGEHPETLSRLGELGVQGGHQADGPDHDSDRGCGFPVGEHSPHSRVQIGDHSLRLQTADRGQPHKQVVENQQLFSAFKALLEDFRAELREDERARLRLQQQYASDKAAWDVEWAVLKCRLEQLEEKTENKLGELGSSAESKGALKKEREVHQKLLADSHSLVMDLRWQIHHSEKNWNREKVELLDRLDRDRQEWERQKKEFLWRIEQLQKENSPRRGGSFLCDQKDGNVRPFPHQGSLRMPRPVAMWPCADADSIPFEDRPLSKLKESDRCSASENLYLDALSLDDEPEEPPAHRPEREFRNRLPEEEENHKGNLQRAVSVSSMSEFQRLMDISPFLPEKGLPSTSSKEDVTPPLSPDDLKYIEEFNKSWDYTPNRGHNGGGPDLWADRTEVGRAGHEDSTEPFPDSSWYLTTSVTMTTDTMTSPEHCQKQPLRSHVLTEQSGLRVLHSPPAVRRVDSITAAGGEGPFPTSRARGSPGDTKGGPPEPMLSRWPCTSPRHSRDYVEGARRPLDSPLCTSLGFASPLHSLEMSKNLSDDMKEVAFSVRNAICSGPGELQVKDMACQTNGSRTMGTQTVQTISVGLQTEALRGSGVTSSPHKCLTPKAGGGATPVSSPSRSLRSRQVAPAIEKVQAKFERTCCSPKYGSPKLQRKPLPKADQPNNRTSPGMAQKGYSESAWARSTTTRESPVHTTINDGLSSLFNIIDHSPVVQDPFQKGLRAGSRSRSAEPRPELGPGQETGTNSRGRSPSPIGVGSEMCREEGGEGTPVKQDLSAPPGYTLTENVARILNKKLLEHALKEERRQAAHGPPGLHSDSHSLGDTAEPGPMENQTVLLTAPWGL

Key:
[1] = compound: ClCC(=O)N[C@@H]1CCCc2ccccc12; assay: log2 mean competition ratio of IA-DTB cysteine labelling (DMSO/compound) (log2 ratio); higher = stronger cysteine engagement by compound; conditions: treatment time: 4 h, cell line lysate: HEK293T
Protocol: (§1)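 IA-DTB competitive cysteine chemoproteomics in HEK293T RIPA lysate. Lysates were treated with compound 29 or 30 at 50 or 200 µM for 4 h, then IA-DTB (500 µM, 1 h), trypsin-digested, NeutrAvidin-enriched and analysed by diaPASEF. Competition ratio = intensity DMSO / intensity compound (n=4 treated, n=64 DMSO); binding: mean log2 CR ≥ 1 and p ≤ 0.05 plus QC filters. Target is the cysteine site.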

[2] = compound: ClCC(=O)N[C@H]1CCCc2ccccc12; assay: as above; conditions: treatment time: 4 h, cell line lysate: HEK293T
Protocol: as §1

| Target | log2 mean competition ratio ([1]; 50 µM) | log2 mean competition ratio ([1]; 200 µM) | log2 mean competition ratio ([2]; 50 µM) | log2 mean competition ratio ([2]; 200 µM) |
| --- | --- | --- | --- | --- |
| MUTYH C514 | 0.0189 | 0.437 | 0.0142 | 0.251 |
| MTIF2 C646 (UniProt P46199) | -0.211 | -0.0513 | -0.0846 | -0.0105 |
| MTUS1 C975 (UniProt Q9ULD2) | 0.25 | 0.376 | -0.176 | 0.259 |
| MRPL38 C143 (UniProt Q96DV4) | 0.378 | -0.337 | 0.463 | -0.404 |
| MYO1E C519 (UniProt Q12965) | -0.245 | 0.244 | 0.291 | 0.418 |
| MYO1C C575 (UniProt O00159) | -0.0476 | 0.0301 | -0.0595 | 0.0915 |
| MTR C378 (UniProt Q99707) | 0.0456 | 0.0619 | -0.00332 | 0.0348 |
| MYH14 C324 (UniProt Q7Z406) | -0.00586 | 0.0884 | 0.03 | -0.0507 |
| MTG2 C175 (UniProt Q9H4K7) | -0.265 | 0.485 | -0.301 | 0.117 |
| MRPS34 C93 (UniProt P82930) | -0.328 | 0.228 | 0.226 | 0.0045 |
| MTSS2 C276 (UniProt Q765P7) | 0.186 | 0.816 | -0.177 | 0.106 |
| MTM1 C113 (UniProt Q13496) | -0.436 | 0.24 | -0.205 | 0.108 |
| MYCBP2 C1516 (UniProt O75592) | -0.00444 | 0.162 | -0.0173 | 0.172 |
| NAA40 C26 (UniProt Q86UY6) | 0.00881 | 0.0572 | 0.508 | 0.112 |
| MTCH2 C79 | 0.176 | -0.179 | -0.243 | -0.183 |
| MYCBP2 C1169 (UniProt O75592) | 0.00758 | -0.0503 | 0.325 | 0.0784 |
| MTMR3 C621 (UniProt Q13615) | -0.0934 | 0.0298 | -0.0231 | 0.114 |
| MSI1 C20 (UniProt O43347) | -0.386 | 0.071 | -0.018 | 0.145 |
| MYO19 C764 (UniProt Q96H55) | -0.121 | -0.188 | 0.131 | -0.0435 |
| MTHFD1L C198 | -0.0726 | 0.153 | -0.296 | 0.11 |
| MYBL2 C7 (UniProt P10244) | -0.133 | 0.0292 | 0.282 | 0.0474 |
| NAP1L4 C77 | 0.252 | -0.632 | 0.221 | -0.22 |
| MSANTD2 C99 (UniProt Q6P1R3) | -0.00618 | -0.135 | 0.166 | 0.156 |
| MYO1D C666 (UniProt O94832) | -0.0756 | 0.00902 | -0.667 | -0.0438 |
| MYH10 C701 (UniProt P35580) | -0.339 | 0.00466 | -0.132 | 0.0576 |

2 records picked at random from the list so far:

| Target | log2 mean competition ratio ([1]; 50 µM) | log2 mean competition ratio ([1]; 200 µM) | log2 mean competition ratio ([2]; 50 µM) | log2 mean competition ratio ([2]; 200 µM) |
| --- | --- | --- | --- | --- |
| MTG2 C175 (UniProt Q9H4K7) | -0.265 | 0.485 | -0.301 | 0.117 |
| MRPS34 C93 (UniProt P82930) | -0.328 | 0.228 | 0.226 | 0.0045 |

The results go on:

| Target | log2 mean competition ratio ([1]; 50 µM) | log2 mean competition ratio ([1]; 200 µM) | log2 mean competition ratio ([2]; 50 µM) | log2 mean competition ratio ([2]; 200 µM) |
| --- | --- | --- | --- | --- |
| MTPAP C82 (UniProt Q9NVV4) | -0.145 | -0.469 | 0.447 | -0.211 |
| MRPL38 C252 (UniProt Q96DV4) | -0.301 | -0.109 | -0.131 | -0.133 |
| MTMR6 C214 (UniProt Q9Y217) | -0.176 | 0.345 | -0.819 | 0.111 |
| MRPL2 C213 (UniProt Q5T653) | 0.188 | 0.181 | 0.351 | 0.0548 |
| MTOR C674 (UniProt P42345) | 0.0767 | -0.0457 | -0.245 | -0.0919 |
| MYO5B C10 | -0.164 | 0.26 | -0.107 | 0.184 |
| MYH10 C823 (UniProt P35580) | -0.0377 | -0.346 | 0.596 | 0.0587 |
| MTMR10 C564 (UniProt Q9NXD2) | 0.211 | 0.44 | 0.128 | 0.185 |
| MTHFSD C113 (UniProt Q2M296) | -0.0672 | 0.0614 | 0.0253 | 0.0754 |
| MTERF4 C307 (UniProt Q7Z6M4) | -0.129 | -0.142 | -0.335 | -0.0811 |
| MYH9 C988 (UniProt P35579) | -0.32 | 0.112 | -0.398 | 0.0489 |
| MYH14 C954 (UniProt Q7Z406) | -0.183 | 0.418 | -0.309 | 0.496 |
| MYO1D C97 (UniProt O94832) | 0.0828 | -0.377 | 0.371 | -0.202 |
| MTCL1 C1615 (UniProt Q9Y4B5) | 0.0315 | 0.0589 | 0.182 | -0.224 |
| MRPL50 C52 (UniProt Q8N5N7) | -0.275 | -0.167 | -0.205 | -0.208 |
| NARS2 C121 (UniProt Q96I59) | -0.158 | 0.00776 | -0.162 | 0.146 |
| NAMPT C401 | 0.0191 | -0.0241 | -0.242 | 0.281 |
| MTREX C650 (UniProt P42285) | -0.129 | -0.292 | -0.299 | -0.135 |
| MYO19 C678 (UniProt Q96H55) | -0.0238 | 0.0125 | -0.308 | -0.112 |
| MTR C400 (UniProt Q99707) | -0.132 | 0.801 | -0.0819 | -0.37 |
| MYH9 C91 (UniProt P35579) | -0.0481 | 0.391 | -0.454 | 0.253 |
| MSH3 C633 (UniProt P20585) | -0.143 | -0.144 | -0.251 | -0.35 |
| MSH3 C763 (UniProt P20585) | 0.14 | -0.313 | 0.185 | -0.238 |
| MTG2 C206 (UniProt Q9H4K7) | 0.409 | 0.0428 | -0.269 | -0.345 |
